Measured values: PubChem BioAssay AID624404 (Broad Institute, 2012)
The whole screen tested about 1,800 compounds, of which about 710 (39%) were called active. The inconclusive results got no clear call from the source; some entries with a clear call stand among them for comparison.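 Rule for the calls: active = luciferase signal rise whose fitted curve crosses a set activity limit at or below the top valid tested dose; inconclusive = flat fit with 30 to 70% rise, or poor fit; inactive = signal falling, flat within 30%, or crossing above top dose.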

Assay: luciferase activators in glycosylation-insensitive reporter cells, dose response, counter-screen for N-linked glycosylation inhibitor project, D54 LucT cells, luminescence, cherry pick (AID 624404);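 note: 0% = median neutral control signal and 100% = twice that signal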
Settings: D54 LucT luciferase reporter counterscreen, 24 h; at 19.5 µM (top of the series) unless noted

SMILES	activity increase (luciferase signal)
Cc1ccc(NC(=O)CSc2nnc(-c3ccco3)c(-c3ccco3)n2)cc1	inconclusive: 58.1%
CCN(CC)CCCNc1cc(C)c(C#N)c2nc3ccccc3n12	inactive: -16.2%
O=C1c2cccc3cccc(c23)C(=O)N1CC1CCN(CC(O)COCc2ccc3c(c2)OCO3)CC1 (stereo not given)	inactive: -18.8%
Cc1cccc(N2CCN(S(=O)(=O)c3ccc(-c4ccc(=O)[nH]n4)o3)CC2)c1C	inconclusive: 64.3%
CCOC(=O)c1ccccc1NS(=O)(=O)c1ccc(OC)cc1	inconclusive: 43.4%
CC(C)CCN(C(=O)Cc1ccc(Cl)c(Cl)c1)c1c(N)n(Cc2ccccc2)c(=O)[nH]c1=O	inactive: 6.92%
c1ccc(CCNc2nc(-c3ccccn3)nc3ccccc23)cc1	inconclusive: 54.5%
Cc1ccc2cc3c(N)c4c(C)ccc(C)c4nc3nc2c1	inactive: 29.4%
CC1(C(=O)Nc2ccc(Cl)cc2)Cc2c(-c3ccc4c(c3)OCO4)ccnc2O1 (stereo not given)	inactive: 27.1%
CC(=O)Nc1cccc(-c2ccnc3c2CC(C)(C(=O)NCc2ccco2)O3)c1 (stereo not given)	inactive: 14.7%
O=C(CCl)Nc1ccc(Sc2ccc(NC(=O)CCl)cc2)cc1	inactive: -72.8%
COc1cc2cc(-c3ccc(O)cc3O)nc(C)c2cc1OC	inconclusive: 72.6%
Cc1c(-c2cccc(Cl)c2)nc2ccccc2c1C(=O)OC/C(O)=C(\C#N)c1nc2ccccc2[nH]1	inactive: 40.5%
COc1ccc(S(=O)(=O)Nc2ccc3c(c2)n(C)c(=O)n3C)cc1C	inconclusive: 71.4%
COc1cc(-c2cc3nc(NCCOc4ccccc4)ccn3n2)cc(OC)c1OC	inactive: 30.5%
CCN(CC)CCCNc1nc2cc(OC)c(OC)cc2c2nc(-c3ccccc3)nn12	inactive: 22.1%
O=C(Cn1ncc(Cl)c(Cl)c1=O)N1CCOCC1	inconclusive: 62.7%
COc1cc(C)cc(C(=O)C=Cc2ccccc2)c1O	inconclusive: 65.7%
COC(=O)c1cccc(NS(=O)(=O)c2ccc(OC)cc2)c1C	inconclusive: 31.9%
Oc1ccc(NCc2cccs2)cc1	inconclusive: 17.5%
COc1ccc(C(=O)/C=C/c2ccccc2F)c(OC(=O)c2ccc([N+](=O)[O-])cc2)c1	inconclusive: 37%
CC(C)CCNC(=O)Cn1c(=O)oc2cc(S(=O)(=O)N3CC(C)CC(C)C3)ccc21 (stereo not given)	inactive: 29.3%

SMILES	activity increase (luciferase signal)
COc1cc(/C=N/NC(=O)c2cc(-c3cccn3C)n[nH]2)cc(OC)c1OC	inconclusive: 97.1%
O=C(CSc1ncnc2nc[nH]c12)c1ccc([N+](=O)[O-])cc1	inactive: -6.76%
O=C(CN1C(=O)NC(c2ccccc2)(c2ccccc2)C1=O)Nc1ccc(N2CCOCC2)cc1	inconclusive: 68.6%
CC1CN(C(=O)/C=C/c2ccc([N+](=O)[O-])s2)CC(C)O1 (stereo not given)	inactive: 2.29%
COCCOC(=O)c1[nH]c2c(c1C)C(=O)CC(c1cccs1)C2 (stereo not given)	inconclusive: 42.9%
O=c1cc(-c2ccccc2)[nH]n1-c1nc2ccccc2[nH]1	inactive: -17.5%
CCN(CC)CCNc1nc2cc(OC)c(OC)cc2c2nc(-c3ccccc3)nn12	inconclusive: 0%
COc1ccc(C(=O)c2sc(Nc3ccccc3)nc2N)cc1OC	inconclusive: -18.2%
Cc1onc(C(=O)Nc2cccc(C(F)(F)F)c2)c1[N+](=O)[O-]	inconclusive: 38.2%
c1ccc2c(c1)nc(N1CCOCC1)c1c3ccccc3[nH]c21	inconclusive: 109%
O=C(Oc1ccc(Br)cc1C(=O)/C=C/c1ccccc1F)c1ccco1	inconclusive: 33.4%
O=C(c1ccc(Cl)cc1)C(CN1CCCCC1)c1ccccc1 (stereo not given)	inactive: -90.7%
Cc1cc(NC(=O)CSc2nc3ccccc3c(=O)n2C2CCCC2)no1	inconclusive: 25.9%
O=C1c2ccccc2-c2n[nH]c(=O)c3ccc(N4CCCCC4)c1c23	inconclusive: 86.8%
Oc1cccc(Nc2c3ccccc3nc3ccccc23)c1	inactive: -11.7%
Nc1c(N(CCC2=CCCCC2)C(=O)COc2ccc(F)cc2)c(=O)[nH]c(=O)n1Cc1ccccc1	inconclusive: 21.2%
Cc1ccc(C)c(NC(=O)Cn2nnc(C(=O)NCc3ccco3)c2N)c1	inactive: 50%
Cc1nc(SCC(=O)Nc2ccc(F)cc2)c(C#N)c(C)c1CC(=O)c1ccc(Br)cc1	inconclusive: 71.5%
CCN(CC)c1ccc(NC(=O)CC2Oc3ccccc3NC2=O)c(C)c1 (stereo not given)	inactive: 13.1%
O=C(NCc1ccccc1)C1Cc2c(-c3cccc(F)c3)ccnc2O1 (stereo not given)	inconclusive: 49.6%
Cc1cnc(NC(=O)c2cc(S(=O)(=O)N(C)C)ccc2N2CCCC2)s1	inactive: -29.3%
COc1ccccc1/C=N/NC(=O)CSc1cc(C)nc2ccccc12	inconclusive: 56.1%

Random excerpt: 4 entries already listed
SMILES	activity increase (luciferase signal)
CCN(CC)CCCNc1nc2cc(OC)c(OC)cc2c2nc(-c3ccccc3)nn12	inactive: 22.1%
COC(=O)c1cccc(NS(=O)(=O)c2ccc(OC)cc2)c1C	inconclusive: 31.9%
Cc1ccc2cc3c(N)c4c(C)ccc(C)c4nc3nc2c1	inactive: 29.4%
c1ccc(CCNc2nc(-c3ccccn3)nc3ccccc23)cc1	inconclusive: 54.5%

Later entries

SMILES	activity increase (luciferase signal)
CCN(CC)S(=O)(=O)c1cc(NC(=O)Cn2ncc(Cl)c(Cl)c2=O)ccc1C	inactive: -30.1%
CCOC(=O)/C=C/C(=O)Nc1ccc(S(=O)(=O)N(C)c2ccccc2)cc1	inactive: 12.7%
COc1cc2c(C#CCCO)c(-c3ccsc3)oc(=O)c2cc1OC	inconclusive: 33%
Cc1cc(NC(=O)COC(=O)c2ccc(S(=O)(=O)N3CCCc4ccccc43)cc2)no1	inactive: -2.94% [at 5 µM]
CCc1ccccc1NC(=O)Cn1nnc(C(=O)NCc2cccs2)c1N	inconclusive: 60%
Cc1cc([N+](=O)[O-])ccc1Nc1nc2ccccc2n2cnnc12	inactive: 0.819%
CCOc1ccccc1NC(=O)Cn1nnc(C(=O)NCc2ccc3c(c2)OCO3)c1N	inconclusive: 63.7%
CC1COCC(C)N1C1=C(Cl)C(=O)c2ccccc2C1=O (stereo not given)	inconclusive: 56%
O=C(/C=C/c1ccc(-c2ccccc2[N+](=O)[O-])o1)c1ccc(Br)cc1	inactive: 23.2%
C#CC[N+](C)(C)CCCCCCCCC	inconclusive: 101%
O=c1cc(-c2ccccc2)[nH]c2ccc(F)cc12	inconclusive: 15.6%
O=C(N=Nc1c(O)[nH]c2ccc(Br)cc12)c1cc(-c2cccs2)nc2ccccc12	inactive: -65.6%
C/C(CC(=O)NCc1ccc(Cl)cc1)=N\NC(=O)COc1ccc(C)cc1Br	inconclusive: 38.1%
CCN(CC)CCNc1ccc(CO)c2oc3cc(Cl)ccc3c(=O)c12	inactive: 19.5%
COc1ccc(Cl)cc1NC(=O)CN(C)CC(=O)Nc1cc(OC)c(OC)c(OC)c1	inactive: -4.41%
c1ccc2c(c1)oc1c(-c3ccc4nccn4c3)cccc12	inconclusive: 61.3%
O=C(Cc1csc(Nc2nc(=S)[nH]c3ccccc23)n1)NCc1cccc(Cl)c1	inconclusive: 37.5%
O=C1[C@@H]2Cc3c([nH]c4ccccc34)C(c3ccc([N+](=O)[O-])cc3)N2C(=O)CN1C1CC1 (stereo not given in full)	inconclusive: 4.79%
COc1ccc(OC)c(N(CC(=O)Nc2cccnc2)S(=O)(=O)c2ccc(C)cc2)c1	inactive: 4.3%
COCC(=O)OC/C(O)=C(\C#N)c1nc2ccccc2[nH]1	inactive: -10.2%
C[C@H]1CN([C@@H](C)CO)C(=O)Cc2cc(NC(=O)CCC(F)(F)F)ccc2O[C@H]1CN(C)S(=O)(=O)c1ccc(Cl)cc1	inconclusive: 20.1%
COc1ccc2c(c1)CCc1c(C(=O)Nc3cc(C)n(Cc4ccc(Cl)cc4)n3)noc1-2	inconclusive: 70.7%

SMILES	activity increase (luciferase signal)
COc1cc(/C=C/C(=O)c2ccc(Cl)s2)cc(OC)c1O	inactive: 3.5%
O=C(O)c1ccccc1OC(C(=O)Nc1cc(Cl)cc(Cl)c1)c1ccccc1 (stereo not given)	inconclusive: 40.7%
COc1cc2nc(NC(=O)c3ccc(F)cc3Cl)sc(=O)c2cc1OC	inconclusive: 72.3%
CCN(CC)c1cc(C)c2cc(NC(=O)c3ccccc3OC)ccc2n1	inconclusive: 62.7%
O=C(c1[nH]c(C(F)(F)F)nc1-c1ccccc1)N1CCN(c2ccccc2)CC1	inconclusive: 53.9%
COc1cc2ccccc2cc1C(=O)N/N=C/c1cccs1	inconclusive: 91.1%
N#Cc1c(NC(=O)c2cnccn2)sc2c1CCCC2	inconclusive: 43.2%
Cc1[nH]c(C)c(C(=O)/C=C/c2ccc([N+](=O)[O-])cc2)c1C	inconclusive: 126%
CCc1cc2c(=O)n(Cc3ccco3)c(SCc3c(C)noc3C)nc2s1	inconclusive: 66.4%
Cc1ccc(-n2nc(C)c(NC(=O)CCl)c2C)cc1	inconclusive: 61.8%
COc1ccc(CCCNC(=O)C2(C)Cc3c(-c4ccc5c(c4)OCO5)ccnc3O2)cc1 (stereo not given)	inactive: 0%
Cc1ccc(/C=N/NC(=O)C2COc3ccccc3O2)s1 (stereo not given)	inconclusive: 67.6%
COc1c(Br)cc(Br)cc1/C=N/NC(=O)c1cccnc1	inconclusive: 25.5%
COc1cccc(S(=O)(=O)Nc2ccc3c(c2)[C@@H]2C[C@@H](CC(=O)NCc4ccc(Cl)cc4)O[C@@H](CO)[C@@H]2O3)c1	inconclusive: 61.6%
CC[C@@]1(c2ccccc2OC)ON(c2ccccc2C(F)(F)F)C1=O	inconclusive: 22.8%
CC1(C(=O)NCc2cccs2)Cc2c(-c3ccc4c(c3)OCO4)ccnc2O1 (stereo not given)	inconclusive: 41.8%
CCN(CC)c1ccc(/C=C2\C(=O)N(c3nnc(C)c(=O)[nH]3)N=C2C)cc1	inconclusive: 97%
O=C(CN1C2=NCCCN2c2ccccc21)c1ccc([N+](=O)[O-])cc1	inconclusive: 0.965%
Nc1c(C(=O)Nc2ccc(S(=O)(=O)N3CCCC3)cc2)sc2nc3cc4c(cc3cc12)CCC4	inconclusive: 51.7%
